The target in assay [1] is EncFtnsH: truncated C-terminal hexahistidine-tagged variant of Rhodospirillum rubrum encapsulated ferritin (EncFtn, Rru_A0973), amino acids 1-96 plus the tag (Rhodospirillum rubrum) (UniProt Q2RVS1). As to the kind of experiment: condition: only the low molecular weight (monomer) SEC fractions, which hold almost no iron; 4.03 mg/ml loaded; SEC-MALLS; pooled monomer fractions of EncFtnsH, 100 ul of 4.03 mg/ml; Superdex 200 10/300 GL; 50 mM Tris-HCl pH 8.0, 150 mM NaCl, 22 C; both purified.

Assay [2] has the same target. As to the kind of experiment: condition: only iron-free protein made in minimal medium, no Fe2+ added; 5 uM; native MS; nESI, 100 mM ammonium acetate pH 8.0, about 5 uM protein; apo protein made in minimal medium, no Fe2+ added; both purified.

No constants are given. Whether binding was seen depends on the method and setting. Tags and fused reporters may be left off the sequences shown.

The results in this text go back to PMC5012862.

B1: EncFtnsH: truncated C-terminal hexahistidine-tagged variant of Rhodospirillum rubrum encapsulated ferritin (EncFtn, Rru_A0973), amino acids 1-96 plus the tag (domain or fragment, UniProt Q2RVS1 1-96)
chain: MAQSSNSTHEPLEVLKEETVNRHRAIVSVMEELEAVDWYDQRVDASTDPELTAILAHNRDEEKEHAAMTLEWLRRNDAKWAEHLRTYLFTEGPITA
Turning to B1, the binding result in assay [1] and in assay [2] was “no binding” each time.
